From paper doi:10.1101/2024.11.20.624481
Results are given in words; binding and its absence hold for the method and conditions named. Binding seen in cells or lysates may run through a third protein. A result given as binding can be weak or reduced; the word gives no strength.

Molecular target: T1, Armadillo BTB Arabidopsis protein 1 (endogenous, plant extracts) (Arabidopsis thaliana (endogenous in plants)) (UniProt B7U179)
T1 sequence: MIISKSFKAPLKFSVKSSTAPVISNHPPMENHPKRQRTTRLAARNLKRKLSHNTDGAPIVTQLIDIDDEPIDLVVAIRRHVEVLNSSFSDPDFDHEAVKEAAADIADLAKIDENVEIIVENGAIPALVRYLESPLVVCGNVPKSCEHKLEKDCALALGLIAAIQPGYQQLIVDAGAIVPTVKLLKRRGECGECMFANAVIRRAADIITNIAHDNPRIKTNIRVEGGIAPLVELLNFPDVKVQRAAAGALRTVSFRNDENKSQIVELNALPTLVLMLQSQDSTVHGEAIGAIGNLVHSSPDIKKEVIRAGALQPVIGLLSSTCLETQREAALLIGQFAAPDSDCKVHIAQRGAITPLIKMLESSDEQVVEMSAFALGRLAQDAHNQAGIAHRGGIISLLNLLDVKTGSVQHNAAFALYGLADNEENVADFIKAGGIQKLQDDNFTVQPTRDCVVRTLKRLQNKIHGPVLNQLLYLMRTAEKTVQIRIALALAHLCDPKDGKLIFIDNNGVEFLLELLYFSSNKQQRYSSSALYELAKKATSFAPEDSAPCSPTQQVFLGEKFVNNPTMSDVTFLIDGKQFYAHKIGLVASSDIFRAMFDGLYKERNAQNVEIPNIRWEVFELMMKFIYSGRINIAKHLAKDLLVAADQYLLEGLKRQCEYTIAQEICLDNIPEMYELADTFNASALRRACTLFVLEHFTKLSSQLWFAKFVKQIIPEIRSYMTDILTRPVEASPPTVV
Assay: co-IP

binding: binds
Substance: AIP10-YFP C-terminal fusion protein (Arabidopsis thaliana)
